Results are given in words; binding and its absence hold for the method and conditions named. In cells and extracts the contact can be indirect. Some results given as binding are weak or reduced against the parent protein; the word gives no strength. Tags and fused reporters may be left off the sequences shown.
Target: T1, GST-ATF2 (UniProt P15336)
T1 sequence: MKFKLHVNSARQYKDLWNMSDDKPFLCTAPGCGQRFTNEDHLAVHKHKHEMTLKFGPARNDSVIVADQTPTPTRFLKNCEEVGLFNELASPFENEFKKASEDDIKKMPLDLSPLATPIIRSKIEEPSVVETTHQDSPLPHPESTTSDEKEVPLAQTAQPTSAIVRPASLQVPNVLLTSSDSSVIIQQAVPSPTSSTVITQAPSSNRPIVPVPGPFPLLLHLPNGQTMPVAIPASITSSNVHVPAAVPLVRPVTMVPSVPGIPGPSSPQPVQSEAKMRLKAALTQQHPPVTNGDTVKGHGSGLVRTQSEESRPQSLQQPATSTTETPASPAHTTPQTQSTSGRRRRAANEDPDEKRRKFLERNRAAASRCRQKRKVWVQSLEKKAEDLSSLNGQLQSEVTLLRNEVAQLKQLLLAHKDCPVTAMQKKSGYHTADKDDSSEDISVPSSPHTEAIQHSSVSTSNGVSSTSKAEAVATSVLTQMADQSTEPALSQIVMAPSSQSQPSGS
Experiment: pull-down; only the target purified

binding: binds
B1: His-MCAF1 (protein, UniProt Q6VMQ6 1-1270)
chain: MDSLEEPQKKVFKARKTMRVSDRQQLEAVYKVKEELLKTDVKLLNGNHENGDLDPTSPLENMDYIKDKEEVNGIEEICFDPEGSKAEWKETPCILSVNVKNKQDDDLNCEPLSPHNITPEPVSKLPAEPVSGDPAPGDLDAGDPASGVLASGDSTSGDPTSSEPSSSDAASGDATSGDAPSGDVSPGDATSGDATADDLSSGDPTSSDPIPGEPVPVEPISGDCAADDIASSEITSVDLASGAPASTDPASDDLASGDLSSSELASDDLATGELASDELTSESTFDRTFEPKSVPVCEPVPEIDNIEPSSNKDDDFLEKNGADEKLEQIQSKDSLDEKNKADNNIDANEETLETDDTTICSDRPPENEKKVEEDIITELALGEDAISSSMEIDQGEKNEDETSADLVETINENVIEDNKSENILENTDSMETDEIIPILEKLAPSEDELTCFSKTSLLPIDETNPDLEEKMESSFGSPSKQESSESLPKEAFLVLSDEEDISGEKDESEVISQNETCSPAEVESNEKDNKPEEEEQVIHEDDERPSEKNEFSRRKRSKSEDMDNVQSKRRRYMEEEYEAEFQVKITAKGDINQKLQKVIQWLLEEKLCALQCAVFDKTLAELKTRVEKIECNKRHKTVLTELQAKIARLTKRFEAAKEDLKKRHEHPPNPPVSPGKTVNDVNSNNNMSYRNAGTVRQMLESKRNVSESAPPSFQTPVNTVSSTNLVTPPAVVSSQPKLQTPVTSGSLTATSVLPAPNTATVVATTQVPSGNPQPTISLQPLPVILHVPVAVSSQPQLLQSHPGTLVTNQPSGNVEFISVQSPPTVSGLTKNPVSLPSLPNPTKPNNVPSVPSPSIQRNPTASAAPLGTTLAVQAVPTAHSIVQATRTSLPTVGPSGLYSPSTNRGPIQMKIPISAFSTSSAAEQNSNTTPRIENQTNKTIDASVSKKAADSTSQCGKATGSDSSGVIDLTMDDEESGASQDPKKLNHTPVSTMSSSQPVSRPLQPIQPAPPLQPSGVPTSGPSQTTIHLLPTAPTTVNVTHRPVTQVTTRLPVPRAPANHQVVYTTLPAPPAQAPLRGTVMQAPAVRQVNPQNSVTVRVPQTTTYVVNNGLTLGSTGPQLTVHHRPPQVHTEPPRPVHPAPLPEAPQPQRLPPEAASTSLPQKPHLKLARVQSQNGIVLSWSVLEVDRSCATVDSYHLYAYHEEPSATVPSQWKKIGEVKALPLPMACTLTQFVSGSKYYFAVRAKDIYGRFGPFCDPQSTDVISSTQSS

Reference: publication PMC3944714
